Measured values published in patent publication CN113234166A.
No constants are given. Whether binding was seen depends on the method and setting. Some binding calls cover weakened binding; strength is not graded here.

Assays:
[1] = molecular target: T1, 重组AFP抗原(爱必信生物，货号Abt-P-208，Genbank ID:174) (UniProt P02771); assay: Biacore SPR sequential injection
T1 sequence (looked up): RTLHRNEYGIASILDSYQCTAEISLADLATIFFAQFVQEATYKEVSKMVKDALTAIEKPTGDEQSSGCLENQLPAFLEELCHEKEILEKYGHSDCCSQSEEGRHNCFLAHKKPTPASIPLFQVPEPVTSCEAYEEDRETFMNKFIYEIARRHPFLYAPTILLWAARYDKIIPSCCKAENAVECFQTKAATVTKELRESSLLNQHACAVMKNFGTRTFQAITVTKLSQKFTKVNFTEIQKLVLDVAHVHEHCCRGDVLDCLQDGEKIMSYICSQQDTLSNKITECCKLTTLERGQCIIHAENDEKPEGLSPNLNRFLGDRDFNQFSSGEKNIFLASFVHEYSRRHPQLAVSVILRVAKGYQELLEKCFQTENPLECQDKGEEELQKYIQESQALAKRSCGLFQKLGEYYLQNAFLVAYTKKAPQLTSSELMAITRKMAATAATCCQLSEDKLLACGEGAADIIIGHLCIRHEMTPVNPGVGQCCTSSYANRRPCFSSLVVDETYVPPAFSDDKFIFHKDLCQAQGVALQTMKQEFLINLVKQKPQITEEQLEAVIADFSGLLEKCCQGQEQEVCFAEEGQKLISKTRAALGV

[2] = molecular target: T1, 重组AFP抗原(爱必信生物，货号Abt-P-208，Genbank ID:174); assay: ELISA additivity on coated antigen
血清标本中的AFP抗原 = molecular target: T2, 血清标本中的AFP抗原 (UniProt P02771); assay: double-antibody sandwich chemiluminescent immunoassay, capture antibody
T2 sequence (looked up): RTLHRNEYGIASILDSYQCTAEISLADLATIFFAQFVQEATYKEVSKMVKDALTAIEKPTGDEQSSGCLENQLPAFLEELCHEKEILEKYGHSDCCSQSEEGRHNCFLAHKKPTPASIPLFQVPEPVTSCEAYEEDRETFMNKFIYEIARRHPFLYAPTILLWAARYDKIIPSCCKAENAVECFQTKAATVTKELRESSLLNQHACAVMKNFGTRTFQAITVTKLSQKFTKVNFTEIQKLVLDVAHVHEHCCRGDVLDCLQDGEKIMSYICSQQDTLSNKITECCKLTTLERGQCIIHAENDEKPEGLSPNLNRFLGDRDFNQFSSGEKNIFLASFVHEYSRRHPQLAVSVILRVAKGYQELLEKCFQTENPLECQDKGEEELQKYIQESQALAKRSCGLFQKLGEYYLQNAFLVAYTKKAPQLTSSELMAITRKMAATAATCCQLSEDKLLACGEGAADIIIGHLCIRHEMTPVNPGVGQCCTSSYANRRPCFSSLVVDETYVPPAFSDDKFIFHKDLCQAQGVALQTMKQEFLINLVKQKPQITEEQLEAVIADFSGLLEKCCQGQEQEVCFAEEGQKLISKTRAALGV

| Binder | binding [1] | binding [2] | binding (血清标本中的AFP抗原) |
| --- | --- | --- | --- |
| 纳米抗体2F5 (VHH) VHH: QVQLQESGGGVVQAGGSLRLTCAASESIFSFAAMGWYRQAPGKQRELVARITGGDNINYADSVKGRFTISKDNAKNTVYLQMNSLKPEDTAVYYCNGEGYGSSWFDDGKNYWGKGTQVTVSS | binds | binds |  |
| FC融合纳米抗体1A7 (Fc fusion, not shown: a dimerising Fc or GST) QVQLQESGGGLVQAGGSLRLSCAASESIFSFAAMGWYRQAPGKQRELVARITGGDNINYADSVKGRFTISKDNAKNTVYLQMNSLKPEDTAVYYCNGEGYGSSWFDDGKNYWGKGTQVTVSS |  |  | binds |
| FC融合纳米抗体2F5 (Fc fusion, not shown: a dimerising Fc or GST) QVQLQESGGGVVQAGGSLRLTCAASESIFSFAAMGWYRQAPGKQRELVARITGGDNINYADSVKGRFTISKDNAKNTVYLQMNSLKPEDTAVYYCNGEGYGSSWFDDGKNYWGKGTQVTVSS |  |  | binds |
| 抗AFP纳米抗体1C5 (VHH) VHH: QVQLQESGGGLVQAGGSLRLSCKASERTFSSYSMAWYRQAPGKKREFVASISWDDERTYYTDSVKGRFTISRPNAKNTVYLQMNSLKPEDTAVYYCAVGGLSDGLGPSYDYWGQGTQVTVSS | binds | binds |  |
| 纳米抗体1A7 (VHH) VHH: QVQLQESGGGLVQAGGSLRLSCAASESIFSFAAMGWYRQAPGKQRELVARITGGDNINYADSVKGRFTISKDNAKNTVYLQMNSLKPEDTAVYYCNGEGYGSSWFDDGKNYWGKGTQVTVSS | binds | binds |  |
